Data as given in US10563263B2, “Genetic polymorphisms associated with statin response and cardiovascular diseases, methods of detection and uses thereof” (CELERA CORPORATION, priority 2010, dated 2020).
Further values from the same series stand in other lists.

System: CHD
Test: Meta-analysis of CARE and WOSCOPS combined, synergy index, CHD endpoint
Type: in vivo, human
From the text: Tables 4-5 provide meta-analyses of CARE and WOSCOPS combined (2nd section of each table) for two endpoints (CHD and CVD) and three genetic models (dominant, recessive, and additive), as well as logistic regression analyses of CARE (3rd section of each table) and WOSCOPS (4th section of each table) individually.
Tables 12 and 17 provide results of meta-analysis of the CARE and WOSCOPS sample sets combined by direct genotyping and by imputing genotypes.
“P” indicates the p-value, and “P(R)” (or “P.R.”) indicates the p-value random effect. Both of these are p-values corresponding to a statistical test of whether the combined synergy index is equal to one but use different assumptions to derive the p-value. “P” is calculated using a fixed effects model, and “P(R)” is calculated using a random effects model.
“OR” indicates the odds ratio (synergy index) calculated from a fixed effects model, and “OR(R)” (or “OR.R.”) indicates the odds ratio (synergy index) calculated from a random effects model.

[1] = rs10831422 allele C ADDITIVE Imputed
[2] = rs10831422 allele C GENOTYPIC Imputed
[3] = rs10862931 allele C GENOTYPIC Imputed
[4] = rs10865197 allele C DOMINANT Imputed
[5] = rs10871302 allele A DOMINANT Imputed
[6] = rs10877463 allele C DOMINANT Imputed
[7] = rs10877468 allele C DOMINANT Imputed
[8] = rs10879240 allele C ADDITIVE Imputed
[9] = rs10879242 allele A DOMINANT Imputed
[10] = rs10879245 allele G DOMINANT Imputed
[11] = rs10879249 allele T DOMINANT Imputed
[12] = rs10886452 allele A DOMINANT Imputed
[13] = rs10886463 allele C DOMINANT Imputed
[14] = rs10886465 allele A DOMINANT Imputed
[15] = rs10886526 allele C DOMINANT Imputed
[16] = rs10902437 allele G ADDITIVE Imputed
[17] = rs10941126 allele G ADDITIVE Imputed
[18] = rs10941126 allele G DOMINANT Imputed
[19] = rs10947871 allele A DOMINANT Imputed
[20] = rs10972978 allele G DOMINANT Imputed
[21] = rs10973012 allele A DOMINANT Imputed
[22] = rs10974028 allele G ADDITIVE Genotyped
[23] = rs10974028 allele G DOMINANT Genotyped
[24] = rs11021302 allele A ADDITIVE Imputed
[25] = rs11021302 allele A GENOTYPIC Imputed
[26] = rs11099644 allele G RECESSIVE Imputed
[27] = rs11138315 allele G ADDITIVE Imputed
[28] = rs11149802 allele T DOMINANT Imputed
[29] = rs11178531 allele A ADDITIVE Imputed
[30] = rs11178531 allele A DOMINANT Imputed

CC[C@H](C)C(=O)O[C@H]1C[C@H](O)C=C2C=C[C@H](C)[C@H](CC[C@@H](O)C[C@@H](O)CC(=O)O)[C@H]21 [Pravastatin, pravastatin]
OR(R) (rs10831417 allele A GENOTYPIC Imputed): 2.3097 | OR [1]: 1.4561 | OR(R) [1]: 1.4561 | OR [2]: 2.2133 | OR(R) [2]: 2.2133 | OR [3]: 0.4267 | OR(R) [3]: 0.4267 | OR [4]: 1.6437 | OR(R) [4]: 1.6437 | OR [5]: 1.4552 | OR(R) [5]: 1.4552 | OR [6]: 0.6825 | OR(R) [6]: 0.6825 | OR [7]: 0.6833 | OR(R) [7]: 0.6833 | OR [8]: 0.6811 | OR(R) [8]: 0.6808 | OR [9]: 0.5555 | OR(R) [9]: 0.5555 | OR [10]: 0.5555 | OR(R) [10]: 0.5555 | OR [11]: 0.6021 | OR(R) [11]: 0.6021 | OR [12]: 1.6068 | OR(R) [12]: 1.5927 | OR [13]: 1.6141 | OR(R) [13]: 1.6047 | OR [14]: 1.604 | OR(R) [14]: 1.596 | OR [15]: 1.6053 | OR(R) [15]: 1.6053 | Meta-analysis OR (rs10889215 allele A vs G (ref)): 1.63 | OR [16]: 1.3336 | OR(R) [16]: 1.3336 | Meta-analysis OR (rs10935907 allele G vs A (ref)): 1.59 | OR [17]: 0.1976 | OR(R) [17]: 0.1976 | OR [18]: 0.2007 | OR(R) [18]: 0.2007 | OR [19]: 1.5391 | OR(R) [19]: 1.5391 | OR [20]: 0.5018 | OR(R) [20]: 0.5018 | OR [21]: 0.5093 | OR(R) [21]: 0.5093 | OR [22]: 0.6153 | OR(R) [22]: 0.6153 | OR [23]: 0.5349 | OR(R) [23]: 0.5349 | OR [24]: 1.4505 | OR(R) [24]: 1.4505 | OR [25]: 2.2069 | OR(R) [25]: 2.2069 | Meta-analysis OR (rs11077308, A1 (non-ref) G, A2 (ref) A): 1.47 | OR [26]: 2.016 | OR(R) [26]: 2.016 | OR [27]: 0.6333 | OR(R) [27]: 0.6333 | OR [28]: 1.4552 | OR(R) [28]: 1.4552 | OR [29]: 0.7412 | OR(R) [29]: 0.7412 | OR [30]: 0.572 | OR(R) [30]: 0.572 | Meta-analysis OR (rs11610993 allele G vs A (ref)): 0.43 | Meta-analysis OR (rs12155847 allele G vs A (ref)): 1.66 | Meta-analysis OR (rs12286877, A1 (non-ref) A, A2 (ref) G): 2.18 | OR (rs12447191 allele T DOMINANT Genotyped, fixed effect): 0.6338 | OR(R) (rs12447191 allele T DOMINANT Genotyped, random effect): 0.6204 | OR (rs12465349 allele A RECESSIVE Imputed, fixed effect): 1.513 | OR(R) (rs12465349 allele A RECESSIVE Imputed, random effect): 1.513 | OR (rs12509758 allele C DOMINANT Imputed, fixed effect): 1.5799 | OR(R) (rs12509758 allele C DOMINANT Imputed, random effect): 1.5799 | OR (rs12515472 allele A DOMINANT Imputed, fixed effect): 1.4022 | OR(R) (rs12515472 allele A DOMINANT Imputed, random effect): 1.4022 | OR (rs12548906 allele G ADDITIVE Imputed, fixed effect): 1.3761 | OR(R) (rs12548906 allele G ADDITIVE Imputed, random effect): 1.3761 | OR (rs12596240 allele G DOMINANT Imputed, fixed effect): 0.6107 | OR(R) (rs12596240 allele G DOMINANT Imputed, random effect): 0.6107 | Meta-analysis OR (rs12608167, A1 (non-ref) G, A2 (ref) A): 0.67 | OR (rs12618781 allele A DOMINANT Imputed, fixed effect): 0.5924 | OR(R) (rs12618781 allele A DOMINANT Imputed, random effect): 0.5924 | Meta-analysis OR (rs12659030, A1 (non-ref) A, A2 (ref) G): 1.43 | OR (rs12678600 allele A DOMINANT Imputed, fixed effect): 0.6235 | OR(R) (rs12678600 allele A DOMINANT Imputed, random effect): 0.6235 | OR (rs12692229 allele T ADDITIVE Imputed, fixed effect): 1.271 | OR(R) (rs12692229 allele T ADDITIVE Imputed, random effect): 1.271 | OR (rs12713324 allele T DOMINANT Imputed, fixed effect): 1.5061 | OR(R) (rs12713324 allele T DOMINANT Imputed, random effect): 1.5061 | OR (rs12719415 allele T DOMINANT Imputed, fixed effect): 0.6712 | OR(R) (rs12719415 allele T DOMINANT Imputed, random effect): 0.6712 | OR (rs12820589 allele G ADDITIVE Imputed, fixed effect): 1.5773 | OR(R) (rs12820589 allele G ADDITIVE Imputed, random effect): 1.5773 | OR (rs12820589 allele G DOMINANT Imputed, fixed effect): 1.6354 | OR(R) (rs12820589 allele G DOMINANT Imputed, random effect): 1.6354 | OR (rs12831292 allele G ADDITIVE Imputed, fixed effect): 0.7143 | OR(R) (rs12831292 allele G ADDITIVE Imputed, random effect): 0.7143 | OR (rs12831292 allele G DOMINANT Imputed, fixed effect): 0.6038
